Consider one molecule from article PMC12661795.

The chains behind the UniProt entries cited, without tags or fusion partners.
UniProt O77059: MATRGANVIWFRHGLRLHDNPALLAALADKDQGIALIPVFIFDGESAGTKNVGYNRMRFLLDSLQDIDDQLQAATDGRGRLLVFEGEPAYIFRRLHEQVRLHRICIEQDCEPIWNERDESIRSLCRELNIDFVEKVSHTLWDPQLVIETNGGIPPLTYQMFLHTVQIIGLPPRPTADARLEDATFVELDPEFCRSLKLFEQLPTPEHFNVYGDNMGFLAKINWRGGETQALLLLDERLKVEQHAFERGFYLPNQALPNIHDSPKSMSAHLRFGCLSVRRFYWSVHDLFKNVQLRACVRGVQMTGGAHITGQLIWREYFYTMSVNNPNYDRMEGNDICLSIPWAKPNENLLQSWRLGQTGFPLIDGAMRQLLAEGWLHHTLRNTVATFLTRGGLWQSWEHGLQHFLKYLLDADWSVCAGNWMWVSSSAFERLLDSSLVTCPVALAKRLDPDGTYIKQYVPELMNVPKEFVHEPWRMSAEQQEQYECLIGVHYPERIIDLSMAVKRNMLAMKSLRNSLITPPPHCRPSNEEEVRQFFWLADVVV

No constants are given. Whether binding was seen depends on the method and setting. Binding seen in cells or lysates may run through a third protein. Some results given as binding are weak or reduced against the parent protein; the word gives no strength.

The target in this assay is HACRY, a hemagglutinin (HA)-tagged form of Drosophila CRYPTOCHROME (dCRY) (Drosophila melanogaster) (UniProt O77059). The assay can be described thus: co-IP; Co-IP from head extracts of tim > HACRY flies, dark (ZT0) and light (ZT0 + 15 min light pulse); blot with anti-SQUID and anti-HA; tim-GAL4 flies as negative control.

B1: RNA-binding protein SQUID (protein, UniProt Q08473 1-344)
chain: MAENKQVDTEINGEDFTKDVTADGPGSENGDAGAAGSTNGSSDNQSAASGQRDDDRKLFVGGLSWETTEKELRDHFGKYGEIESINVKTDPQTGRSRGFAFIVFTNTEAIDKVSAADEHIINSKKVDPKKAKARHGKIFVGGLTTEISDEEIKTYFGQFGNIVEVEMPFDKQKSQRKGFCFITFDSEQVVTDLLKTPKQKIAGKEVDVKRATPKPENQMMGGMRGGPRGGMRGGRGGYGGRGGYNNQWDGQGSYGGYGGGYGGYGAGGYGDYYAGGYYNGYDYGYDGYGYGGGFEGNGYGGGGGGNMGGGRGGPRGGGGPKGGGGFNGGKQRGGGGRQQRHQPY
For the molecule B1, the binding result was “binds”.
